Measured values: patent US20260234272A1 (SCHOLAR ROCK, published 2026)
Numbering of substitutions follows the chain as printed. Results are given in words; binding and its absence hold for the method and conditions named. Some results given as binding are weak or reduced against the parent protein; the word gives no strength.

Chains of the proteins cited; added tags and fusions are not shown. Lines headed by an entry give the natural chain unless they say otherwise; changes in a name come on top.
UniProt Q14766: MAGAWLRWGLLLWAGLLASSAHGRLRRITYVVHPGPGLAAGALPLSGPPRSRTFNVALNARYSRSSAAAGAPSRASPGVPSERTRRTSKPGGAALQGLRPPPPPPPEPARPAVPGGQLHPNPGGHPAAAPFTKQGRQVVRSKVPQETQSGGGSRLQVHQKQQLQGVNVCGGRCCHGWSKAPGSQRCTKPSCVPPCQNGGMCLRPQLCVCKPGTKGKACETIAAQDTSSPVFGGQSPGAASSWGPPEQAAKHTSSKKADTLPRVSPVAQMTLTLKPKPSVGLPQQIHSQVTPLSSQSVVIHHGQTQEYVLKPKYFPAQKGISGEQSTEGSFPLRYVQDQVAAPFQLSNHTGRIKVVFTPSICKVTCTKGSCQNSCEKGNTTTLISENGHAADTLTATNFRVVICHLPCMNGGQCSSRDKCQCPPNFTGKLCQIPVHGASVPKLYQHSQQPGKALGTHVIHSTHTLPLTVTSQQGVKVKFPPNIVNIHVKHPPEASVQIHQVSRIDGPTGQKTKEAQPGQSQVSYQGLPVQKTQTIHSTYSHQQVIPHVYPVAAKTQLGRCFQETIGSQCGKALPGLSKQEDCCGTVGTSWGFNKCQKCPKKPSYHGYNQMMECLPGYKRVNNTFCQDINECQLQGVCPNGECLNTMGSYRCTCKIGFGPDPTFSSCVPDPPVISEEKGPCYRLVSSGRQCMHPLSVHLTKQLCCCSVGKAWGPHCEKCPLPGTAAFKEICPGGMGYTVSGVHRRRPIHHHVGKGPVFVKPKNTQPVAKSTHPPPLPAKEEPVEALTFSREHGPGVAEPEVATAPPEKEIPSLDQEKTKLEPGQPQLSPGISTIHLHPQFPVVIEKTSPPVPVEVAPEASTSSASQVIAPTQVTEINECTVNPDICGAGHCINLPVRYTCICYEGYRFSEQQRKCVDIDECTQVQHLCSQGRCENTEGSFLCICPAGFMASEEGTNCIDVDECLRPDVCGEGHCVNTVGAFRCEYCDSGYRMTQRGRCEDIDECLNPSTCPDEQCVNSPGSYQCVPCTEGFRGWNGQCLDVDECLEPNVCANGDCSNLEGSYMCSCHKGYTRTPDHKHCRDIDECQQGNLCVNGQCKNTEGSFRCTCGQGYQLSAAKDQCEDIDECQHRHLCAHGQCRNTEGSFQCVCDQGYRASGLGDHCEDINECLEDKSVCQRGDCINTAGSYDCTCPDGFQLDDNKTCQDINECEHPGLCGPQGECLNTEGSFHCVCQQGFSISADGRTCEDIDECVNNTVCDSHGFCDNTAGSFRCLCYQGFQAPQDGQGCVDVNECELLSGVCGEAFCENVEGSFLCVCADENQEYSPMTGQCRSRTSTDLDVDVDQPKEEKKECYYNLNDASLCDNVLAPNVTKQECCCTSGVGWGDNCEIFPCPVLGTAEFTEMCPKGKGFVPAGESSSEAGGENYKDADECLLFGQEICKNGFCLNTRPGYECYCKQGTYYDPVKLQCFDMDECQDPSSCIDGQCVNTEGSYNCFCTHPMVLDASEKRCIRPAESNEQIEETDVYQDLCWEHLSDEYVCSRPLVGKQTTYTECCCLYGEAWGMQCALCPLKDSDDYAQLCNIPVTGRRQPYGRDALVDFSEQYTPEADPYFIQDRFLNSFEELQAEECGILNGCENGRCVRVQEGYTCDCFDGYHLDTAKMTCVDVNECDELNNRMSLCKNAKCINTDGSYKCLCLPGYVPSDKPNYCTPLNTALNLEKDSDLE
UniProt Q9NS15: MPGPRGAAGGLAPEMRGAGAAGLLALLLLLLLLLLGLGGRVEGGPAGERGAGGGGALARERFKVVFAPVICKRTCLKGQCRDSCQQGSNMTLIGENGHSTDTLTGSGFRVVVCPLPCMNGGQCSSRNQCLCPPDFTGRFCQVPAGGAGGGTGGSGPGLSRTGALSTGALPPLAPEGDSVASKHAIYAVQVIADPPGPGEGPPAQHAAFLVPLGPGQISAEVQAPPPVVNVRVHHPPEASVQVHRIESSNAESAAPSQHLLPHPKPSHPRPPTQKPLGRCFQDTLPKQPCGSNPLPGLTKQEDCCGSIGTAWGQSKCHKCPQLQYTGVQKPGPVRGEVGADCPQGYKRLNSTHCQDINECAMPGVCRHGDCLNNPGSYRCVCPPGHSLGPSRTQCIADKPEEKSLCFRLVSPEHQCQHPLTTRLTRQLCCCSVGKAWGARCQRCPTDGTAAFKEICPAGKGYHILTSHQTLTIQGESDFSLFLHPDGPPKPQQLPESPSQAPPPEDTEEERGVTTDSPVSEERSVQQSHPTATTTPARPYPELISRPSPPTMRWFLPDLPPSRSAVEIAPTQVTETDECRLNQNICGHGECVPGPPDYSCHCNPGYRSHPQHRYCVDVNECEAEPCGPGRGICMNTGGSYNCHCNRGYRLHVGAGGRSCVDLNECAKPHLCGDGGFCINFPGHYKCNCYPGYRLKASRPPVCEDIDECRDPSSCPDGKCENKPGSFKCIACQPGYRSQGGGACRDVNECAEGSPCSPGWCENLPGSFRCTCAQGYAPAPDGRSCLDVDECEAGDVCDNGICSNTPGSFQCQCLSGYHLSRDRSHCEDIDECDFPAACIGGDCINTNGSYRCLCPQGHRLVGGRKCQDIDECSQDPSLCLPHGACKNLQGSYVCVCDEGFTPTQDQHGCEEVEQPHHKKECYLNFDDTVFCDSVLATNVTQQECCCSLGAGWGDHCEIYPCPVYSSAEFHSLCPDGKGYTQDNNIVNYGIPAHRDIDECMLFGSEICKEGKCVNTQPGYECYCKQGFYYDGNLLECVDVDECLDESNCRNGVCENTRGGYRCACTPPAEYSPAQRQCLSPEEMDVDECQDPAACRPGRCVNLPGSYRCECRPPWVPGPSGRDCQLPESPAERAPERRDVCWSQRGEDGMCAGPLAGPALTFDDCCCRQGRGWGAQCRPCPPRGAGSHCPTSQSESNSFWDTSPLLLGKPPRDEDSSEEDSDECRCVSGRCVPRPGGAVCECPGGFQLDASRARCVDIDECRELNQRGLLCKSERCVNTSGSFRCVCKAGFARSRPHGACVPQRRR
UniProt Q8CG19: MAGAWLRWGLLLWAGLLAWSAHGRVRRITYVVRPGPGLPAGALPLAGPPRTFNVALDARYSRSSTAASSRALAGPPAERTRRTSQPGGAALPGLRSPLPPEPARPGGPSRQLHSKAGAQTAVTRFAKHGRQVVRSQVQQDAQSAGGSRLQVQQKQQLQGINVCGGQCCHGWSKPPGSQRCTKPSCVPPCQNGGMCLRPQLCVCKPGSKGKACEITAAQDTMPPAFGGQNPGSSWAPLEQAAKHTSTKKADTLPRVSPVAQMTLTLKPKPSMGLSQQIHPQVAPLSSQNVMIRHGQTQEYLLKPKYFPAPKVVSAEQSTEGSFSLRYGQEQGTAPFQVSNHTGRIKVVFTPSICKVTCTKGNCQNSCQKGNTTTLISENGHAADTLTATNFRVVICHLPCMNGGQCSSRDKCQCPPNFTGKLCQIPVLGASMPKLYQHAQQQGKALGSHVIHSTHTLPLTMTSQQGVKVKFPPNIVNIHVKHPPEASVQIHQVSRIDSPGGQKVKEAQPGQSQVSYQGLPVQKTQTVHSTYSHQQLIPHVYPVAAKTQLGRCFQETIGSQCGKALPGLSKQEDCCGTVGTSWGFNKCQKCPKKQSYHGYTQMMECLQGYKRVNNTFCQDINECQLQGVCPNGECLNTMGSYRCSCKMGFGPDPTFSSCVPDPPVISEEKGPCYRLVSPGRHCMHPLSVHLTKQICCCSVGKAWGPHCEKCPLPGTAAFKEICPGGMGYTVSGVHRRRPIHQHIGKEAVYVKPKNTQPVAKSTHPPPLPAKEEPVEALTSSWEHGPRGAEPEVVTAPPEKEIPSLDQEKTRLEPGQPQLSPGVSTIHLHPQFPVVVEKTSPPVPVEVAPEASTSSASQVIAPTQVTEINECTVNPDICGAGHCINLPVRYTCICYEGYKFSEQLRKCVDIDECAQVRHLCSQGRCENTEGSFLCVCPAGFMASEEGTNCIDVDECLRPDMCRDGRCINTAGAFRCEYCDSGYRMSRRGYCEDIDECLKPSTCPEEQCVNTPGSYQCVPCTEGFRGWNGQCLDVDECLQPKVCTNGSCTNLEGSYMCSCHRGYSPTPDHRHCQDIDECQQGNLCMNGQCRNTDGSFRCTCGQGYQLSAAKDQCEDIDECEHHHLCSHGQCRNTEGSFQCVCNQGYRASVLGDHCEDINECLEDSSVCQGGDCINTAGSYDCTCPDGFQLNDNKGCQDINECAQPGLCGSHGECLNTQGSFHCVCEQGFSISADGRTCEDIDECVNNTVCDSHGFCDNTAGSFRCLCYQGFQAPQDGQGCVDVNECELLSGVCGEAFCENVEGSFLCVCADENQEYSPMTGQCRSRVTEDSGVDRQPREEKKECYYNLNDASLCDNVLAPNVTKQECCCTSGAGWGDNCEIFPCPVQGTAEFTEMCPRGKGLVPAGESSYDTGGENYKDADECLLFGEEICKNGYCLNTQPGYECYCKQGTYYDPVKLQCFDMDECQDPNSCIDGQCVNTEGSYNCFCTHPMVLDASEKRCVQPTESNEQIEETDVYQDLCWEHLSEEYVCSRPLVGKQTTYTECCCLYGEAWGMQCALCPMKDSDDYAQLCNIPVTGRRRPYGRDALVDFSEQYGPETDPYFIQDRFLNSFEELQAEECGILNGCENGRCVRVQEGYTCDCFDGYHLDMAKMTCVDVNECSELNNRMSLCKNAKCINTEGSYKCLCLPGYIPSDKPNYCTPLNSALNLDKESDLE

Tests used:
[1] = target: T1, human LTBP1-proTGFβ1 complex (human, UniProt Q14766 347-1721; P01137 30-390); assay: ELISA vs. recombinant proTGFβ1 protein complexes, relative binding (RLU); antibody concentration not shown
T1 construct: Complex of presenting molecule LTBP1 disulfide-linked to a proTGFβ1 homodimer; also called proTGFβ1:LTBP1 complex; LTBP1-TGFβ1 complex

[2] = target: LTBP3-proTGFβ1 complex (human) (UniProt Q9NS15); assay: as above
[3] = target: T1, human LTBP1-proTGFβ1 complex; assay: Octet, biotinylated complex on streptavidin tips (FIG. 11)
[4] = target: mouse LTBP1-proTGFβ1 complex (mouse) (UniProt Q8CG19); assay: ELISA, RLU mean ± SD; antibody concentration not shown
[5] = target: T1, human LTBP1-proTGFβ1 complex; assay: as above
[6] = target: LTBP3-proTGFβ1 complex (human) (UniProt Q9NS15); assay: as above
[7] = target: T1, human LTBP1-proTGFβ1 complex; assay: Octet binning

Measured: binding

B1: SR-AB2 (antibody, V domains shown)
VH: QVQLVQSGAEVKKPGASVKVSCKASGYTFTSYGISWVRQAPGQGLEWMGWISAYNGNTNYAQKLQGRVTMTTDTSTSTAYMELRSLRSDDTAVYYCARAPLGNFDSWGQGTMVTVSS
VL: NFMLTQPHSVSESPGKTVTISCTRSSGSIASNYVQWYQQRPGSSPTTVIYEDNQRPSGVPDRFSGSIDSSSNSASLTISGLKTEDEADYYCQSYDSSNHPVVFGGGTKLTVL
binds: all assays above

B2: SR-AB10 (antibody, V domains shown)
VH: QLQLQESGGGVVQPGRSLRLSCAASGFTFNNYPIHWVRQAPGKGLEWVAVMSYDGINKYYADSVKGRFTISRDNSKNTLYLQMNSLRAEDTAVYYCARPRIAARRGGFDYWGQGTLVTVSS
VL: B1 VL with S28N, A30D, S31N, S97D, H99Q, P100G
binds: [3] | [7]
